Results of single-concentration screens

Mtb cholesterol medium: 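Growth of Mycobacterium tuberculosis over 4 days (cholesterol / DPPC medium with tyloxapol); the read-out is not stated. Concentration: 500 µM. Higher reads as more growth inhibition (inferred: compounds with an IC50 in retests scored well above the rest). About 18,000 compounds were tested under these conditions; 5% (about 900) showed 50% or more at least once.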
Mtb glucose medium: 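Growth of Mycobacterium tuberculosis over 3 days (7H9 medium with glucose and tyloxapol); the read-out is not stated. Tested at 500 µM. Higher reads as more growth inhibition (inferred: compounds with an IC50 in retests scored well above the rest). Size under these conditions: about 18,000 compounds, about 1,400 of them at 50% or above in at least one test.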

Values are the deposited “Percent Effect”, in %.
The controls that fix the scale are not given in the record; negative values are as filed.
Compounds were drawn at random from those tested, without regard to their results.

* CCOc1cc(CNCc2ccccn2)ccc1O | Mtb cholesterol medium: -4.79%; Mtb glucose medium: 2.41%
* COCCOCCn1cc(F)ccc1=O | Mtb cholesterol medium: -17.12%; Mtb glucose medium: -9.678%
* Cc1nc(C#N)c(NCc2cccnc2)o1 | Mtb cholesterol medium: 4.463%; Mtb glucose medium: 6.256%
* CCOC(=O)CC(C)NC(=O)Nc1cccnc1OC (stereo not shown) | Mtb cholesterol medium: -4%; Mtb glucose medium: 15.56%
* COc1cccc(CN(C)C(=O)c2cscn2)n1 | Mtb cholesterol medium: 6.895%; Mtb glucose medium: 24.58%
* CN1CCN(Cc2cccc3c2OCO3)CC1CCO (stereo not shown) | Mtb cholesterol medium: -3.237%; Mtb glucose medium: -11.76%
* CNS(=O)(=O)CCNc1ncnc2c1CCNCC2 | Mtb cholesterol medium: -8.163%; Mtb glucose medium: 5.938%
* CCc1nnc(NC(=O)c2ccc(S(=O)(=O)NC)o2)s1 | Mtb cholesterol medium: 8.034%; Mtb glucose medium: 6.682%
* NCc1cnn(-c2ccc(F)cc2)c1 | Mtb cholesterol medium: 21.8%; Mtb glucose medium: 41.15%
* CN(C)C(=O)NCC(=O)NCCCc1ccncc1 | Mtb cholesterol medium: -0.25%; Mtb glucose medium: 8.049%
* COCc1noc(-c2ccc(C#N)cc2)n1 | Mtb cholesterol medium: -19.97%; Mtb glucose medium: -8.994%
* CC(=O)NCCNC(=O)c1cc2c(F)cccc2s1 | Mtb cholesterol medium: -3.255%; Mtb glucose medium: 10.34%
* Cc1cccc(NC(=O)c2cnccn2)n1 | Mtb cholesterol medium: 1.165%; Mtb glucose medium: 3.623%
* CC(C)(C)C(=O)N1CCc2cnccc21 | Mtb cholesterol medium: 5.569%; Mtb glucose medium: 4.482%
* N#CCCNC(=O)CN1CCCC1 | Mtb cholesterol medium: -19.07%; Mtb glucose medium: 7.395%
* N#Cc1ccnc(OCC2CC2)c1 | Mtb cholesterol medium: -5.994%; Mtb glucose medium: -7.929%
* COc1cc(OC)cc(N2CCC(N)C2)c1 (stereo not shown) | Mtb cholesterol medium: 51.42%; Mtb glucose medium: 76.13%
* COc1ccc(NC(=O)N2CCOCC2)cc1F | Mtb cholesterol medium: -5.443%; Mtb glucose medium: -1.647%
* CN1CCCC(N2C(=O)c3ccccc3C2=O)C1=O (stereo not shown) | Mtb cholesterol medium: -4.191%; Mtb glucose medium: 7.084%
* CCC(CO)NC(=O)Nc1nnc(-c2ccccn2)s1 (stereo not shown) | Mtb cholesterol medium: 7.734%; Mtb glucose medium: 5.067%
* CN(Cc1cc(C2CC2)[nH]n1)C(=O)c1c[nH]c(=O)[nH]1 | Mtb cholesterol medium: 0.1549%; Mtb glucose medium: 12.05%
* N[C@@H]1CCCC[C@H]1NS(=O)(=O)CCc1ccccc1 | Mtb cholesterol medium: 14.21%; Mtb glucose medium: 17.52%
* NCC(CO)Cc1ccccc1Cl (stereo not shown) | Mtb cholesterol medium: 25.45%; Mtb glucose medium: 29.49%
* c1cnn(CCNCc2ccc3c(c2)CCO3)c1 | Mtb cholesterol medium: 4.725%; Mtb glucose medium: 8.143%
* CS(=O)(=O)N1CCCC(NC(=O)NC2CC2)C1 (stereo not shown) | Mtb cholesterol medium: -0.13%; Mtb glucose medium: 11.1%
* Cc1cc(Br)oc1C(=O)NCCOC(N)=O | Mtb cholesterol medium: 6.643%; Mtb glucose medium: 4.136%
* CCCN1CCN(c2ccccn2)CC1 | Mtb cholesterol medium: -1.268%; Mtb glucose medium: 4.163%
* CC(=O)N1CCC(N)c2ccc(F)cc2C1 (stereo not shown) | Mtb cholesterol medium: -2.519%; Mtb glucose medium: 1.353%
* OCc1nnc2n1N=C(c1ccc(Cl)cc1)CS2 | Mtb cholesterol medium: -20.08%; Mtb glucose medium: -6.928%
* CC(C)NC1CCN(C(=O)Nc2ccncc2)CC1 | Mtb cholesterol medium: 0.748%; Mtb glucose medium: 4.469%
* CCn1ncnc1C(C)NC(=O)c1cccc(O)c1C (stereo not shown) | Mtb cholesterol medium: 4.288%; Mtb glucose medium: 8.597%
* CCN(CC(N)=O)Cc1ccc(N2CCCC2)nc1 | Mtb cholesterol medium: 23.44%; Mtb glucose medium: 38.47%
* Cc1cc(C)n(-c2ccc(C(=O)NC(C)(C)C)cn2)n1 | Mtb cholesterol medium: -20.75%; Mtb glucose medium: 33.68%
* CC(=O)Nc1ccc(CNc2nnc(C(C)C)o2)cc1 | Mtb cholesterol medium: 19.82%; Mtb glucose medium: 23.57%
* CC(CS(C)(=O)=O)N(C)C(=O)COc1ccc(Br)cc1 (stereo not shown) | Mtb cholesterol medium: 6.446%; Mtb glucose medium: 42.28%
* CCNC(=O)CSc1nccn1C1CC1 | Mtb cholesterol medium: -22.34%; Mtb glucose medium: -13.21%
* Cc1c(Cl)cccc1N(S(C)(=O)=O)S(C)(=O)=O | Mtb cholesterol medium: 19.31%; Mtb glucose medium: 38.75%
* COC(=O)CN1CCN(c2cccc(F)c2C#N)CC1 | Mtb cholesterol medium: -18.05%; Mtb glucose medium: 12.6%
* Cn1cc(Br)c(=O)c(NC(=O)Cc2ccc(O)cc2)c1 | Mtb cholesterol medium: -6.61%; Mtb glucose medium: 1.931%
* OC(c1ccccn1)C1CCN(Cc2ncc[nH]2)CC1 (stereo not shown) | Mtb cholesterol medium: -4.062%; Mtb glucose medium: -0.06668%
* CC(=O)NC(c1cnc2ccccc2c1)[C@H]1C[C@@H](O)C1 (stereo partly shown) | Mtb cholesterol medium: -10.73%; Mtb glucose medium: -9.016%
* NS(=O)(=O)c1ccc(F)c(C(=O)Nc2ccccc2)c1 | Mtb cholesterol medium: 36.23%; Mtb glucose medium: 54.33%
* O=C1CNCCN1c1cccc2cnccc12 | Mtb cholesterol medium: -8.719%; Mtb glucose medium: -5.395%
* COC(=O)c1ccc(CNC(C)=O)c(Br)c1 | Mtb cholesterol medium: -10.73%; Mtb glucose medium: -3.586%
* CC1CN(c2cc(C(F)(F)F)ccn2)CCS1(=O)=O (stereo not shown) | Mtb cholesterol medium: -11.56%; Mtb glucose medium: -0.8382%

Measurements from “University of Dundee, Small-Polar-MMV Screening Library” (2021), ChEMBL document CHEMBL3988442.